# Reference: the supplement of paper PMC8728848
# This is one part of the list.
# B1: Actd5 (Actinidia), P84527 (protein)
# chain: ISSCNGPCRDLNDCDGQLICIKGKCNDDPQVGTHICRGTTHSHQPGGCKPSGTLTCRGKSYPTYDCSPPVTSSTPAKLTNNDFSEGGDDGGPSECDESYHNNNERIVALSTGWYNGGSRCGKMIRITASNGKSVSAKVVDECDSRHGCDKEHAGQPPCRNNIVDGSNAVWSALGLDKNVGVVDITWSMA
# Experiments:
# Assay in all cases: glycan array binding signal (z-score within array); higher = stronger binding
# Conditions in all cases: glycan notation: IUPAC condensed, linker removed
# [1] = target: Neu5Ac(a2-6)Gal(b1-4)GlcNAc(b1-2)Man(a1-3)[GlcNAc(b1-4)][Neu5Ac(a2-6)Gal(b1-4)GlcNAc(b1-2)Man(a1-6)]Man(b1-4)GlcNAc(b1-4)GlcNAc
# How it was run: (§1)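 The binding signal is a Z-score computed within each array. Data were drawn from 3228 arrays in the Consortium for Functional Glycomics database, restricted to those with a known protein sequence. Scores were averaged over arrays of the same protein sequence at different concentrations or buffers, and over linkers, and negative values can be taken as non-binding.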
# [2] = target: Neu5Ac(a2-6)Gal(b1-4)GlcNAc(b1-2)Man(a1-3)[Man(a1-6)]Man(b1-4)GlcNAc(b1-4)GlcNAc
# How it was run: as §1
# [3] = target: Neu5Ac(a2-6)Gal(b1-4)GlcNAc(b1-2)Man(a1-3)[Neu5Ac(a2-3)Gal(b1-4)GlcNAc(b1-2)Man(a1-6)]Man(b1-4)GlcNAc(b1-4)GlcNAc
# How it was run: as §1
# [4] = target: Neu5Ac(a2-6)Gal(b1-4)GlcNAc(b1-2)Man(a1-3)[Neu5Ac(a2-6)Gal(b1-4)GlcNAc(b1-2)Man(a1-6)]Man(b1-4)GlcNAc(b1-4)GlcNAc
# How it was run: as §1
# [5] = target: Neu5Ac(a2-6)Gal(b1-4)GlcNAc(b1-2)Man(a1-3)[Neu5Ac(a2-6)Gal(b1-4)GlcNAc(b1-2)Man(a1-6)]Man(b1-4)GlcNAc(b1-4)[Fuc(a1-6)]GlcNAc
# How it was run: as §1
# [6] = target: Neu5Ac(a2-6)Gal(b1-4)GlcNAc(b1-2)Man(a1-6)Man(b1-4)GlcNAc(b1-4)GlcNAc
# How it was run: as §1
# [7] = target: Neu5Ac(a2-6)Gal(b1-4)GlcNAc(b1-2)Man(a1-6)[Gal(b1-4)GlcNAc(b1-2)Man(a1-3)]Man(b1-4)GlcNAc(b1-4)GlcNAc
# How it was run: as §1
# [8] = target: Neu5Ac(a2-6)Gal(b1-4)GlcNAc(b1-2)Man(a1-6)[GlcNAc(b1-2)Man(a1-3)]Man(b1-4)GlcNAc(b1-4)GlcNAc
# How it was run: as §1
# [9] = target: Neu5Ac(a2-6)Gal(b1-4)GlcNAc(b1-2)Man(a1-6)[Man(a1-3)]Man(b1-4)GlcNAc(b1-4)GlcNAc
# How it was run: as §1
# [10] = target: Neu5Ac(a2-6)Gal(b1-4)GlcNAc(b1-2)[Neu5Ac(a2-6)Gal(b1-4)GlcNAc(b1-4)]Man(a1-3)[GlcNAc(b1-4)][Neu5Ac(a2-6)Gal(b1-4)GlcNAc(b1-2)[Neu5Ac(a2-6)Gal(b1-4)GlcNAc(b1-6)]Man(a1-6)]Man(b1-4)GlcNAc(b1-4)GlcNAc
# How it was run: as §1
# [11] = target: Neu5Ac(a2-6)Gal(b1-4)GlcNAc(b1-2)[Neu5Ac(a2-6)Gal(b1-4)GlcNAc(b1-4)]Man(a1-3)[GlcNAc(b1-4)][Neu5Ac(a2-6)Gal(b1-4)GlcNAc(b1-4)Man(a1-6)]Man(b1-4)GlcNAc(b1-4)GlcNAc
# How it was run: as §1
# [12] = target: Neu5Ac(a2-6)Gal(b1-4)GlcNAc(b1-2)[Neu5Ac(a2-6)Gal(b1-4)GlcNAc(b1-6)]Man(a1-6)[Neu5Ac(a2-6)Gal(b1-4)GlcNAc(b1-2)Man(a1-3)][GlcNAc(b1-4)]Man(b1-4)GlcNAc(b1-4)GlcNAc
# How it was run: as §1
# [13] = target: Neu5Ac(a2-6)Gal(b1-4)GlcNAc(b1-3)Gal(b1-3)GlcNAc
# How it was run: as §1
# [14] = target: Neu5Ac(a2-6)Gal(b1-4)GlcNAc(b1-3)Gal(b1-4)GlcNAc
# How it was run: as §1
# [15] = target: Neu5Ac(a2-6)Gal(b1-4)GlcNAc(b1-3)Gal(b1-4)GlcNAc(b1-2)Man(a1-3)[Neu5Ac(a2-6)Gal(b1-4)GlcNAc(b1-3)Gal(b1-4)GlcNAc(b1-2)Man(a1-6)]GalNAc
# How it was run: as §1
# [16] = target: Neu5Ac(a2-6)Gal(b1-4)GlcNAc(b1-3)Gal(b1-4)GlcNAc(b1-3)Gal(b1-4)GlcNAc
# How it was run: as §1
# [17] = target: Neu5Ac(a2-6)Gal(b1-4)GlcNAc(b1-3)Gal(b1-4)GlcNAc(b1-3)Gal(b1-4)GlcNAc(b1-2)Man(a1-3)[Neu5Ac(a2-6)Gal(b1-4)GlcNAc(b1-3)Gal(b1-4)GlcNAc(b1-3)Gal(b1-4)GlcNAc(b1-2)Man(a1-6)]GalNAc
# How it was run: as §1
# [18] = target: Neu5Ac(a2-6)Gal(b1-4)GlcNAc(b1-3)Gal(b1-4)GlcNAc(b1-3)GalNAc
# How it was run: as §1
# [19] = target: Neu5Ac(a2-6)Gal(b1-4)GlcNAc(b1-3)Gal(b1-4)GlcNAc(b1-3)[Neu5Ac(a2-6)Gal(b1-4)GlcNAc(b1-3)Gal(b1-4)GlcNAc(b1-6)]GalNAc
# How it was run: as §1
# [20] = target: Neu5Ac(a2-6)Gal(b1-4)GlcNAc(b1-3)Gal(b1-4)GlcNAc(b1-6)[Gal(b1-3)]GalNAc
# How it was run: as §1
# [21] = target: Neu5Ac(a2-6)Gal(b1-4)GlcNAc(b1-3)Gal(b1-4)[Fuc(a1-3)]GlcNAc(b1-3)Gal(b1-4)[Fuc(a1-3)]GlcNAc
# How it was run: as §1
# [22] = target: Neu5Ac(a2-6)Gal(b1-4)GlcNAc(b1-3)GalNAc
# How it was run: as §1
# [23] = target: Neu5Ac(a2-6)Gal(b1-4)GlcNAc(b1-3)[Neu5Ac(a2-6)Gal(b1-4)GlcNAc(b1-6)]GalNAc
# How it was run: as §1
# [24] = target: Neu5Ac(a2-6)Gal(b1-4)GlcNAc(b1-6)GalNAc
# How it was run: as §1
# [25] = target: Neu5Ac(a2-6)Gal(b1-4)GlcNAc(b1-6)[Gal(b1-3)GlcNAc(b1-3)]Gal(b1-4)Glc
# How it was run: as §1
# [26] = target: Neu5Ac(a2-6)Gal(b1-4)GlcNAc(b1-6)[Gal(b1-3)]GalNAc
# How it was run: as §1
# [27] = target: Neu5Ac(a2-6)Gal(b1-4)GlcNAc6S
# How it was run: as §1
# Neu5Ac(a2-6)GalNAc = target: Neu5Ac(a2-6)GalNAc
# How it was run: as §1
# [28] = target: Neu5Ac(a2-6)GalNAc(b1-4)GlcNAc
# How it was run: as §1
# [29] = target: Neu5Ac(a2-6)GalNAc(b1-4)GlcNAc6S
# How it was run: as §1
# [30] = target: Neu5Ac(a2-6)GlcNAc(b1-4)GlcNAc
# How it was run: as §1
binder,measurement,setting,value
B1,glycan array binding signal (z-score),[1],-1.55
same,glycan array binding signal (z-score),[2],-0.388
same,glycan array binding signal (z-score),[3],0.577
same,glycan array binding signal (z-score),[4],0.068
same,glycan array binding signal (z-score),[5],0.542
same,glycan array binding signal (z-score),[6],-0.411
same,glycan array binding signal (z-score),[7],-1.05
same,glycan array binding signal (z-score),[8],-0.496
same,glycan array binding signal (z-score),[9],-0.064
same,glycan array binding signal (z-score),[10],-0.29
same,glycan array binding signal (z-score),[11],-0.925
same,glycan array binding signal (z-score),[12],-0.224
same,glycan array binding signal (z-score),[13],0.01
same,glycan array binding signal (z-score),[14],-0.814
same,glycan array binding signal (z-score),[15],0.883
same,glycan array binding signal (z-score),[16],-0.472
same,glycan array binding signal (z-score),[17],3.79
same,glycan array binding signal (z-score),[18],0.091
same,glycan array binding signal (z-score),[19],1.78
same,glycan array binding signal (z-score),[20],-0.12
same,glycan array binding signal (z-score),[21],0.196
same,glycan array binding signal (z-score),[22],-0.953
same,glycan array binding signal (z-score),[23],-0.867
same,glycan array binding signal (z-score),[24],0.285
same,glycan array binding signal (z-score),[25],-0.403
same,glycan array binding signal (z-score),[26],-0.362
same,glycan array binding signal (z-score),[27],-0.979
same,glycan array binding signal (z-score),Neu5Ac(a2-6)GalNAc,-1.14
same,glycan array binding signal (z-score),[28],-1.33
same,glycan array binding signal (z-score),[29],-1.17
same,glycan array binding signal (z-score),[30],-1.14

# Reprinted from above (2 entries):
binder,measurement,setting,value
B1,glycan array binding signal (z-score),[6],-0.411
same,glycan array binding signal (z-score),[7],-1.05
